Data on one molecule can be found in PMC10936097.

By UniProt entry, the sequences of proteins in these tests, tags left out.
UniProt O35099: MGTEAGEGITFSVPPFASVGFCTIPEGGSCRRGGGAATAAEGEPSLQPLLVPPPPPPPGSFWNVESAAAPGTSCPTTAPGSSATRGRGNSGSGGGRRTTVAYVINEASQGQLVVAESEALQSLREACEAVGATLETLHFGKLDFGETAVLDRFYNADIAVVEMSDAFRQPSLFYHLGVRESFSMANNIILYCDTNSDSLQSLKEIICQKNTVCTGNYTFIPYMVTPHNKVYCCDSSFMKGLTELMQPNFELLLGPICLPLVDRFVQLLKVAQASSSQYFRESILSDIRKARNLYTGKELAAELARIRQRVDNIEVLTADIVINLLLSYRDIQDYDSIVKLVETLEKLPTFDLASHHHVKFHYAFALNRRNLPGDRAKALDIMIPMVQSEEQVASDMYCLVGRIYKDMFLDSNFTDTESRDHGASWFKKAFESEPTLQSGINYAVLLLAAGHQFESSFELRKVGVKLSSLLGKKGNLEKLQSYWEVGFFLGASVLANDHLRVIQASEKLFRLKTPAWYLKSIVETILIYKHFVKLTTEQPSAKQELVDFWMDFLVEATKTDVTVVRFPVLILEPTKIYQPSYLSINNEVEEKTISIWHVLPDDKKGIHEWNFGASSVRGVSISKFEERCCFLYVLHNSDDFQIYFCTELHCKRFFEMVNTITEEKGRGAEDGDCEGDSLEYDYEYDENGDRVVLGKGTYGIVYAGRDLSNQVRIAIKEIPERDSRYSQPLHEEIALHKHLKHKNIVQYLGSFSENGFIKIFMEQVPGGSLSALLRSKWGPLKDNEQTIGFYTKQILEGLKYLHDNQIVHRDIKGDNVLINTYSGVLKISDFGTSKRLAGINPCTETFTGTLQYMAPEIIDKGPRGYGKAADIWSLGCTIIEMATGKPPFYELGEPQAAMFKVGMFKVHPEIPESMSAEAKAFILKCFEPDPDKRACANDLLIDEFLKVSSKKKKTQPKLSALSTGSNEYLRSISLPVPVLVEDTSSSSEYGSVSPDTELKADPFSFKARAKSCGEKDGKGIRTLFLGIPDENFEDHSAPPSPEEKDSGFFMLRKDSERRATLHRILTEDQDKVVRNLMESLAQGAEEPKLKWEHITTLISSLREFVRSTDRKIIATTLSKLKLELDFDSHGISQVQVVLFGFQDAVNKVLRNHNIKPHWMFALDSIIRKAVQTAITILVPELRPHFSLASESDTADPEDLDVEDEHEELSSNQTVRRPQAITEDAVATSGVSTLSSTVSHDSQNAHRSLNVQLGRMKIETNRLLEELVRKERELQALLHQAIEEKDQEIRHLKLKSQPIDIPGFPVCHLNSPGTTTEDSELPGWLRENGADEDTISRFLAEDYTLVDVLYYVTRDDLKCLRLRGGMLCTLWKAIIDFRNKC

This assay concerns the target apoptosis signal-regulating kinase 1 (ASK1), Flag-tagged (UniProt O35099). Description: co-IP; exogenous co-IP in mouse AML-12 hepatocytes transfected with HA-GSTM1 and Flag-ASK1; cells lysed in co-IP buffer on ice 30 min, supernatant incubated with Flag Magnetic Beads overnight at 4 °C, washed three times, western blotting. On the technique in general: A western blot detects proteins with antibodies after separation by electrophoresis.

Results are given in words; binding and its absence hold for the method and conditions named. Binding seen in cells or lysates may run through a third protein. Some results given as binding are weak or reduced against the parent protein; the word gives no strength. Sequences can lack the tags named with a protein.

B1: glutathione S-transferase mu 1 (GSTM1), HA-tagged (enzyme, UniProt P10649 1-218)
chain: MPMILGYWNVRGLTHPIRMLLEYTDSSYDEKRYTMGDAPDFDRSQWLNEKFKLGLDFPNLPYLIDGSHKITQSNAILRYLARKHHLDGETEEERIRADIVENQVMDTRMQLIMLCYNPDFEKQKPEFLKTIPEKMKLYSEFLGKRPWFAGDKVTYVDFLAYDILDQYRMFEPKCLDAFPNLRDFLARFEGLKKISAYMKSSRYIATPIFSKMAHWSNK
Take B1: the binding entry is “binds”.
